The source of these data is US20020064855A1.

These are yes or no findings as the source states them, for the method shown. In cells and extracts the contact can be indirect. Some binding calls cover weakened binding; strength is not graded here. Where a sequence is shown, tags or fusion partners need not be part of it.

The assay has as its target T1, AA4 (mouse) (UniProt O89103).
T1 sequence (chain, glycosylated (mature form 130 kDa, precursor 105 kDa)): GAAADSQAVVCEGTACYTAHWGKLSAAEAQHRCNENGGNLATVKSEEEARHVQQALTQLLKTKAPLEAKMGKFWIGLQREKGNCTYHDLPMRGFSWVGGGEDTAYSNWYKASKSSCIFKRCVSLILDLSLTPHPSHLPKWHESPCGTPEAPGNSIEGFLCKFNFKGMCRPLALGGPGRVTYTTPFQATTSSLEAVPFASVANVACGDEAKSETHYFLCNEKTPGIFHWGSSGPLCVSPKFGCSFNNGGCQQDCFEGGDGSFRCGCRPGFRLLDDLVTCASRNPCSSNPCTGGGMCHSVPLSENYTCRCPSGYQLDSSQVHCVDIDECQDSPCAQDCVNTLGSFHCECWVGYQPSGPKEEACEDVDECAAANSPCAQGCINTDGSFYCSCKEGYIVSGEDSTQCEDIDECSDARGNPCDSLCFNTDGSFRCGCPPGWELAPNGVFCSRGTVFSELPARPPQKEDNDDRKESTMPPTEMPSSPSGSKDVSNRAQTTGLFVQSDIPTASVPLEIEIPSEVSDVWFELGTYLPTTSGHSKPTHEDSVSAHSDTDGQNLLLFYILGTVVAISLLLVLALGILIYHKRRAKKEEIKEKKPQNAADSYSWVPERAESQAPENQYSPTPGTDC
The experiment in a line: coprecipitation by protein A from NIH 3T3 cells stably producing AA4 and coexpressing AA4-Fc; equimolar amounts of AA4 and AA4-Fc were coprecipitated.

B1: AA4-Fc fusion protein (Fc fusion, not shown: a dimerising Fc or GST)
chain: ADSQAVVCEGTACYTAHWGKLSAAEAQHRCNENGGNLATVKSEEEARHVQQALTQLLKTKAPLEAKMGKFWIGLQREKGNCTYHDLPMRGFSWVGGGEDTAYSNWYKASKSSCIFKRCVSLILDLSLTPHPSHLPKWHESPCGTPEAPGNSIEGFLCKFNFKGMCRPLALGGPGRVTYTTPFQATTSSLEAVPFASVANVACGDEAKSETHYFLCNEKTPGIFHWGSSGPLCVSPKFGCSFNNGGCQQDCFEGGDGSFRCGCRPGFRLLDDLVTCASRNPCSSNPCTGGGMCHSVPLSENYTCRCPSGYQLDSSQVHCVDIDECQDSPCAQDCVNTLGSFHCECWVGYQPSGPKEEACEDVDECAAANSPCAQGCINTDGSFYCSCKEGYIVSGEDSTQCEDIDECSDARGNPCDSLCFNTDGSFRCGCPPGWELAPNGVFCSRGTVFSELPARPPQKEDNDDRKESTMPPTEMPSSPSGSKDVSNRAQTTGLFVQSDIPTASVPLEIEIPSEVSDVWFELGTYLPTTSGHSKPTHEDSVSAHSDTDGQN
As for B1, the binding entry is given as “binds”.
